In paper PMC12298815 (Pharmaceutics, 2025):
Where two headings read alike, the source gives them in different places.

Assay: In vivo pharmacokinetics in rats
Settings: plasma, rat, AT 2.5 mg/kg; for AUC(0-inf): read-out: AUCinf of AT; for AUC(0-t): read-out: AUClast of AT
Protocol: Pharmacokinetic parameters were calculated using a non-compartmental analysis model with WinNonlin® software version 5.3 (Pharsight Corp., Mountain View, CA, USA). All quantitative data are presented as mean ± standard deviation (SD) or standard error of the mean (SEM), as indicated. Statistical analyses were performed using one-way analysis of variance (ANOVA) to assess differences among groups, followed by Tukey’s post hoc test for multiple comparisons. A p-value less than 0.05 (p < 0.05) was considered statistically significant.

Cmax (IV): 250 ± 62.2 ng/mL
AUC(0-inf) (IV): 205 ± 45.7 ng·h/mL
AUC(0-t) (IV): 204 ± 45.6 ng·h/mL
Cmax (oral): 2.78 ± 0.2 ng/mL
Tmax (oral): 6 h
AUC(0-inf) (oral): 90.7 ± 19.9 ng·h/mL
AUC(0-t) (oral): 39.7 ± 2.96 ng·h/mL
SMILES: CC(C)c1c(C(=O)Nc2ccccc2)c(-c2ccccc2)c(-c2ccc(F)cc2)n1CC[C@@H](O)C[C@@H](O)CC(=O)O [AT, Atorvastatin]
